Experimental data: PubChem BioAssay AID652243 (Drosophila RNAi Screening Center, 2013)
The screen tested about 24,000 reagents; this is a random part of those that have a named target and a result. Of all reagents, 246 (1%) are marked active. 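Plates not normalised; calls are printed but the firefly/Renilla ratio behind them is not deposited; fold cut for lowering reported inconsistently.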 The raw values are shown without normalisation. A number with no mark means an inactive call. Reagents against one gene are numbered here. A plus sign joins genes that one reagent is predicted to hit. The record does not give: the amount of reagent.

Screen: 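Fly genes required for human androgen receptor driven transcription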 (primary screen)
Cells: Drosophila S2R+ cells
Reagents: long dsRNA against Drosophila genes
Timing: 72 h (48 h, then 24 h hormone)
Challenge: synthetic androgen R1881 at 10 nM for 24 h
Detection: 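Firefly light from an androgen-responsive reporter and Renilla control light per well, raw and unnormalised, for each of two replicates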
Direction: firefly reporter light: higher = more light from androgen-responsive reporter; Renilla control light: higher = more constitutive control signal (cell number, transfection)
Hit rule: 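Across duplicate plates, a knock-down whose log firefly/Renilla ratio shifted a set fold down or up from the GFP/LacZ control mean was a hit; the downward cut appears as both 1.5 and 3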
Calls: active = hit: reporter lowered or raised; inactive = no hit

Which result is listed for CG12984?
firefly reporter light, replicate 1: 1.71e5; firefly reporter light, replicate 2: 1.89e5; Renilla control light, replicate 1: 1.42e6; Renilla control light, replicate 2: 2.17e6

For CG9863, what was measured?
firefly reporter light, replicate 1: 3.23e5; firefly reporter light, replicate 2: 7.00e5; Renilla control light, replicate 1: 6.66e5; Renilla control light, replicate 2: 1.40e6

With mms4 (Methyl methanesulfonate sensitivity 4), how do the results read?
firefly reporter light, replicate 1: 2.15e5; firefly reporter light, replicate 2: 1.98e5; Renilla control light, replicate 1: 1.60e6; Renilla control light, replicate 2: 1.47e6

For Vm34Ca (Vitelline membrane 34Ca) #1, what was measured?
firefly reporter light, replicate 1: 1.64e5; firefly reporter light, replicate 2: 1.79e5; Renilla control light, replicate 1: 1.16e6; Renilla control light, replicate 2: 1.06e6

What did the screen give for Vm34Ca (Vitelline membrane 34Ca) #2?
firefly reporter light, replicate 1: 2.67e5; firefly reporter light, replicate 2: 2.41e5; Renilla control light, replicate 1: 1.34e6; Renilla control light, replicate 2: 6.91e5

For Osi2 (Osiris 2) #1, what does the deposit list?
firefly reporter light, replicate 1: 79438; firefly reporter light, replicate 2: 88238; Renilla control light, replicate 1: 1.19e6; Renilla control light, replicate 2: 1.24e6

How did the screen score Osi2 (Osiris 2) #2?
firefly reporter light, replicate 1: 2.60e5; firefly reporter light, replicate 2: 5.69e5; Renilla control light, replicate 1: 1.01e6; Renilla control light, replicate 2: 1.60e6

What did the screen give for CG8065?
firefly reporter light, replicate 1: 2.00e5; firefly reporter light, replicate 2: 1.52e5; Renilla control light, replicate 1: 1.63e6; Renilla control light, replicate 2: 1.43e6

For Cap-D3 + tomb, what does the deposit list?
firefly reporter light, replicate 1: 1.27e5; firefly reporter light, replicate 2: 1.40e5; Renilla control light, replicate 1: 1.21e6; Renilla control light, replicate 2: 1.12e6

With Spp (Signal peptide peptidase), how do the results read?
firefly reporter light, replicate 1: 6.11e5; firefly reporter light, replicate 2: 6.33e5; Renilla control light, replicate 1: 1.54e6; Renilla control light, replicate 2: 1.32e6

For Apl (Apollo), what does the deposit list?
firefly reporter light, replicate 1: 2.58e5; firefly reporter light, replicate 2: 3.00e5; Renilla control light, replicate 1: 3.00e6; Renilla control light, replicate 2: 2.61e6

How did the screen score Sec23 (Secretory 23)?
firefly reporter light, replicate 1: 55362; firefly reporter light, replicate 2: 47292; Renilla control light, replicate 1: 2.30e5; Renilla control light, replicate 2: 2.67e5

How did the screen score out (outsiders) #1?
firefly reporter light, replicate 1: 60499; firefly reporter light, replicate 2: 80398; Renilla control light, replicate 1: 4.91e5; Renilla control light, replicate 2: 5.53e5

Which result is listed for out (outsiders) #2?
firefly reporter light, replicate 1: 3.07e5; firefly reporter light, replicate 2: 3.28e5; Renilla control light, replicate 1: 1.06e6; Renilla control light, replicate 2: 1.05e6

With Cyp9b2 (Cytochrome P450 9b2) #1, what does the deposit list?
firefly reporter light, replicate 1: 3.47e5; firefly reporter light, replicate 2: 3.14e5; Renilla control light, replicate 1: 1.38e6; Renilla control light, replicate 2: 1.24e6

For Cyp9b2 (Cytochrome P450 9b2) #2, what does the deposit list?
firefly reporter light, replicate 1: 4.95e5; firefly reporter light, replicate 2: 4.12e5; Renilla control light, replicate 1: 4.94e5; Renilla control light, replicate 2: 4.60e5

What did the screen give for CG31098?
firefly reporter light, replicate 1: 2.02e5; firefly reporter light, replicate 2: 2.39e5; Renilla control light, replicate 1: 1.83e6; Renilla control light, replicate 2: 1.89e6

For AttA (Attacin-A) #1, what was measured?
firefly reporter light, replicate 1: 9.57e5; firefly reporter light, replicate 2: 7.31e5; Renilla control light, replicate 1: 1.97e6; Renilla control light, replicate 2: 1.96e6

How did the screen score AttA (Attacin-A) #2?
firefly reporter light, replicate 1: 2.03e5; firefly reporter light, replicate 2: 3.11e5; Renilla control light, replicate 1: 6.39e5; Renilla control light, replicate 2: 7.14e5

What did the screen give for CG15423 #1?
firefly reporter light, replicate 1: 1.14e5; firefly reporter light, replicate 2: 1.19e5; Renilla control light, replicate 1: 9.75e5; Renilla control light, replicate 2: 1.04e6

How did the screen score CG15423 #2?
firefly reporter light, replicate 1: 5.67e5; firefly reporter light, replicate 2: 7.00e5; Renilla control light, replicate 1: 1.65e6; Renilla control light, replicate 2: 1.65e6
